# PubChem BioAssay AID504444 (National Center for Advancing Translational Sciences (NCATS), 2011)
# In all, about 360,000 compounds went through this assay and about 7,500 (2.1%) were called active. The shares of active, inactive and inconclusive entries below differ from those in the screen. The call rests on the fitted dose curve; in most records, active means well fitted inhibition curve with a large enough effect; inconclusive means small, poorly fitted or top-dose-only effect, or effect the other way; inactive means flat fitted curve, though single readings scatter. Potencies beside an inconclusive call are fits to weak or partial responses and may not hold up.
# Assay: Nrf2 qHTS screen for inhibitors; further: nearly all actives have a fitted effect of over 60% in size
# Conditions: A549 ARE-Fluc reporter, luciferase luminescence, 18-24 h; activity change, negative = inhibition: at 46 µM (top of the series)
# Method in brief: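 Cells were seeded and rested 2 h, then exposed to compounds for 18-24 h. CellTiter-Fluor was read first as a viability measure. BugLite was added 15 min before the final luminescent read of ARE-luciferase activity in A549 cells.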
# On the % scale 0 is the no-effect control and ±100 the full control effect; potency means the concentration at half of the fitted maximal effect.
SMILES,Potency,"activity change, negative = inhibition"
COc1ccc(OC)c(N(CC(=O)NCCSCc2ccc(C)cc2)S(C)(=O)=O)c1,"inconclusive: 32.6 µM [falling, single point]",
CC(C)CC(=O)Nc1nc2nc(-c3ccccc3)cc(=O)n2[nH]1,,inactive: 24.3%
O=C(NCc1ccco1)c1cc(-c2cccs2)nc2ccccc12,,inactive: -8.36%
COC(=O)c1c(Oc2ccc(OC)cc2)nnc(-c2ccccc2)c1-c1ccccc1,"inconclusive: 16.4 µM [falling, single point]",
O=C1CCCc2cc(S(=O)(=O)N3CCCC(C(=O)Nc4ccc(F)c(Cl)c4)C3)ccc2N1 (configuration not stated),"inconclusive: 29.1 µM [falling, single point]",
COc1cc(/C=N/Nc2nc(C)cc(=O)[nH]2)cc(OC)c1O,"inconclusive: 29.1 µM [activator, partial curve, poor fit]",
COC(=O)c1cc(NC(=O)CCc2c(C)nc3ncnn3c2C)cc(C(=O)OC)c1,"inconclusive: 3.66 µM [falling, single point]",
CNC(=O)c1cc2c(ccc3ccccc32)o1,"inconclusive: 6.51 µM [activator, partial curve]",
Cn1c(=O)[nH]c(=O)c2c1nc(CN1CCN(c3ccccc3F)CC1)n2CCc1ccccc1,"inconclusive: 9.2 µM [falling, partial curve, poor fit]",
CSc1cccc(Nc2cc(C(=O)NCCc3ccc(Cl)cc3)c3ccccc3n2)c1,"inconclusive: 9.2 µM [falling, single point]",
COc1ccc(C2Nc3ccccc3C(=O)N2Cc2ccccc2C(F)(F)F)cc1COc1ccc(NC(C)=O)cc1 (configuration not stated),,inactive: -3.93%
CCS(=O)(=O)c1ncc(Cl)c(C(=O)Nc2ccc(S(=O)(=O)N3CCC(C)CC3)cc2)n1,"inconclusive: 18.4 µM [falling, single point]",
Cc1ccc(-n2c(C)cc(/C=c3/sc4nc5ccccc5n4c3=O)c2C)cc1,"inconclusive: 5.8 µM [falling, partial curve, poor fit]",
CCN(c1ccccc1)S(=O)(=O)c1ccc(NC(=S)NC(=O)c2cccs2)cc1,"inconclusive: 14.6 µM [falling, partial curve]",
CC(C)CCOCC(=O)Oc1ccccc1C(=O)O,,inactive: -5.66%
COc1cccc(C2NC(=O)NC(C)=C2C(=O)OCC2CCCCC2)c1 (configuration not stated),"inconclusive: 13 µM [falling, partial curve]",
Cc1oc(/N=C/c2ccc(Cl)cc2)c(C#N)c1C,"inconclusive: 4.61 µM [activator, full curve]",
COc1ccc(C2/C=C\CN(C(=O)c3ccc(C)cc3)[C@H](Cc3ccccc3)C(=O)N2Cc2ccc(F)cc2)cc1 (some centres not stated),"inconclusive: 29.1 µM [falling, single point]",
COC(=O)COc1ccc2oc(-c3ccc(OC)cc3)cc(=O)c2c1,"inconclusive: 29.1 µM [activator, single point]",
CCC1CCCCN1CCCNC(=O)CN1C(=O)c2cccnc2Oc2ccc(C)cc21 (configuration not stated),"inconclusive: 29.1 µM [activator, single point]",
Cc1cc(NC(=O)c2cc(-c3ccccn3)nc3ccc(Br)cc23)no1,"inconclusive: 16.4 µM [falling, single point]",

SMILES,Potency,"activity change, negative = inhibition"
CCN(CC)C(=O)COc1ccc(/C=N/NC(=O)c2cc(-c3ccccc3OC)nc3ccccc23)cc1OC,,inactive: 0.611%
COc1ccc(OCC(=O)NNC(=O)c2ccccn2)cc1,"inconclusive: 29.1 µM [falling, single point]",
Cc1ccc(-c2onc3ccc(C(=O)/C=C/N(C)C)cc23)cc1,,inactive: 9.94%
CCOC(=O)c1ccc(N/C=C2\CCCCC2=O)cc1,"inconclusive: 3.26 µM [activator, partial curve, poor fit]",
Cc1cc(-c2nnc(CCC(=O)N(C)CCc3ccccc3)o2)no1,"inconclusive: 29.1 µM [activator, single point]",
CCOc1ccc(C(=O)CCC(=O)N(CC)CC(=O)NCc2cccs2)cc1,,inactive: 5.22%
Cc1ccc(-c2nc3ncccn3c2Nc2ccc3c(c2)OCCO3)o1,,inactive: 14.9%
CCOC(=O)C1=C(CN2CCc3ccccc32)NC(=O)NC1c1cccc([N+](=O)[O-])c1 (configuration not stated),,inactive: -21.3%
COc1ccc(N2C(=O)CCC(C(=O)c3ccccc3)=C2C)cc1,"inconclusive: 0.103 µM [falling, full curve]",
CCn1c(N2CCN(C(=S)NCCc3ccccc3)CC2)nc2ccccc21,"inconclusive: 23.1 µM [falling, single point]",
CCOc1cc(C2C3=C(CCCC3=O)OC3=C2C(=O)CCC3)cc([N+](=O)[O-])c1O,"inconclusive: 1.84 µM [activator, partial curve, poor fit]",
COc1ccccc1CNS(=O)(=O)c1ccc2c(c1)CC(=O)N2C,"inconclusive: 8.2 µM [falling, partial curve, poor fit]",
Cc1ccc(NC(=O)CSc2nnc(CCNC(=O)OC(C)(C)C)o2)c(C)c1,"inconclusive: 7.31 µM [falling, partial curve]",
CCc1ccc2[nH]c(=O)c(CN(Cc3ccccc3)Cc3nnnn3Cc3ccco3)cc2c1,"inconclusive: 29.1 µM [falling, single point]",
Cc1ccc(S(=O)(=O)NC(=O)COc2ccccc2)cc1,,inactive: -13.1%
CCOC(=O)c1ccc2c(c1)N(CC)C(=O)c1ccccc1S2,,inactive: -7.46%
COC(=O)c1ccc(N2CCC(c3cc(-c4ccc(OC)cc4)n[nH]3)CC2)c([N+](=O)[O-])c1,"inconclusive: 25.9 µM [falling, partial curve, poor fit]",
Cc1ccc2oc3c(c(=O)c2c1)C(c1ccccc1F)N(CCCN(C)C)C3=O (configuration not stated),"inconclusive: 20.6 µM [activator, single point]",
O=C(Cc1cccs1)NCc1ccc(Cl)cc1Cl,"inconclusive: 20.6 µM [activator, single point]",
COc1ccc(C(=O)c2sc3nc(C)cc(-c4cccs4)c3c2N)cc1OC,active: 10.3 µM,
COc1ccccc1-n1c(SCC(=O)Nc2nnc(C)s2)nc2c(c1=O)SCC2,"inconclusive: 23.1 µM [falling, partial curve, poor fit]",

# Part of the list above, with bars between the fields.
SMILES | Potency | activity change, negative = inhibition
COc1ccccc1CNS(=O)(=O)c1ccc2c(c1)CC(=O)N2C | inconclusive: 8.2 µM [falling, partial curve, poor fit] | 
Cc1ccc(S(=O)(=O)NC(=O)COc2ccccc2)cc1 |  | inactive: -13.1%
